Some of the results follow.

By UniProt entry, the sequences of proteins in these tests, tags left out. Where a name states a change or a piece, a line headed by the entry shows the natural chain unless it says otherwise.
UniProt Q7Z4R8: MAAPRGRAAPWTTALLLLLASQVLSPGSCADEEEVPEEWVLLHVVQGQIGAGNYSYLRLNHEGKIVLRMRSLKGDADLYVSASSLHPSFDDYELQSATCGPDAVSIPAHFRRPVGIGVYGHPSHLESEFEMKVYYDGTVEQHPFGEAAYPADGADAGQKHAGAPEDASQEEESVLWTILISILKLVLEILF
UniProt P00915: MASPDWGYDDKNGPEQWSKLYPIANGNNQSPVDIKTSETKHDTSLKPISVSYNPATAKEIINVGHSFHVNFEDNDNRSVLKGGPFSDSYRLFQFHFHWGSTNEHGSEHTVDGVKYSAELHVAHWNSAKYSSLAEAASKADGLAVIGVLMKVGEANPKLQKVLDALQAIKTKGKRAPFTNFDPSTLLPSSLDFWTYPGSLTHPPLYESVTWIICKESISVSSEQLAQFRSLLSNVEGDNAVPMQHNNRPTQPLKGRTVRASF
UniProt Q9BSU1: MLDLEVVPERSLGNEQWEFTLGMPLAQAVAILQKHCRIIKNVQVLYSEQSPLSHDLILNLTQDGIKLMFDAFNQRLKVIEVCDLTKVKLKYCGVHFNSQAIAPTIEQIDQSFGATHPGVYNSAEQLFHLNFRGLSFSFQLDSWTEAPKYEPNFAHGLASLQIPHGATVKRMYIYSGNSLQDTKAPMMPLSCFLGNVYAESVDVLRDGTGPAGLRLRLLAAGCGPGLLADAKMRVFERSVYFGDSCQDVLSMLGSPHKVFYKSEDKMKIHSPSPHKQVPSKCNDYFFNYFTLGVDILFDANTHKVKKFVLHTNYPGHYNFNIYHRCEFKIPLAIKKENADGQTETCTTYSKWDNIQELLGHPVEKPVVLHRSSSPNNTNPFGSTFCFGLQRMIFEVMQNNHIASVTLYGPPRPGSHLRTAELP
UniProt Q6PH81: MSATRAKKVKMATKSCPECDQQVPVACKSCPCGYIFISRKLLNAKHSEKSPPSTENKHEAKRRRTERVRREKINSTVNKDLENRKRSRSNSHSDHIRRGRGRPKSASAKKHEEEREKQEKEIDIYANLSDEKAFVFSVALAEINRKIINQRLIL
UniProt P27482, whole entry, looked up: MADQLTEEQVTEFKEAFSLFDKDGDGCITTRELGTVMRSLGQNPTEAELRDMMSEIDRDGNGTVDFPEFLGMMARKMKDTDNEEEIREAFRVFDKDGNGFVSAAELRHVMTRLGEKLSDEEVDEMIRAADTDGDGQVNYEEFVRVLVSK
UniProt P04003: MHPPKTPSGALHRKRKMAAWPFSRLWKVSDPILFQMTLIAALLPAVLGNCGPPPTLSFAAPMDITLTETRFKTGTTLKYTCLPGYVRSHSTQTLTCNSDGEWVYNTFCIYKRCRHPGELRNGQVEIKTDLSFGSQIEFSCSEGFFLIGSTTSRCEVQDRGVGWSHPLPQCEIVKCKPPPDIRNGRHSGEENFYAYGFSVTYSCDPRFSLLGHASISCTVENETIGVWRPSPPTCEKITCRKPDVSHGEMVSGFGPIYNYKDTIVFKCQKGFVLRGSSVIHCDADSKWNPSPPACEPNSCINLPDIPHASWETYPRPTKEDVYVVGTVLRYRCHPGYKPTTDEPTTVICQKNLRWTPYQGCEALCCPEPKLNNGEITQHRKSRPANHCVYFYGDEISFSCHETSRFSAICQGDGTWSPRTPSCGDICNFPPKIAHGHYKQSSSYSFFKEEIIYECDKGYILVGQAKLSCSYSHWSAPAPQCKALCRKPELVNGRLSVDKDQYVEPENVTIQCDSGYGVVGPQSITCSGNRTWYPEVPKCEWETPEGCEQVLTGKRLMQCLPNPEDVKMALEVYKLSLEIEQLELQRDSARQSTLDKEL
UniProt Q96RR4, whole entry, looked up: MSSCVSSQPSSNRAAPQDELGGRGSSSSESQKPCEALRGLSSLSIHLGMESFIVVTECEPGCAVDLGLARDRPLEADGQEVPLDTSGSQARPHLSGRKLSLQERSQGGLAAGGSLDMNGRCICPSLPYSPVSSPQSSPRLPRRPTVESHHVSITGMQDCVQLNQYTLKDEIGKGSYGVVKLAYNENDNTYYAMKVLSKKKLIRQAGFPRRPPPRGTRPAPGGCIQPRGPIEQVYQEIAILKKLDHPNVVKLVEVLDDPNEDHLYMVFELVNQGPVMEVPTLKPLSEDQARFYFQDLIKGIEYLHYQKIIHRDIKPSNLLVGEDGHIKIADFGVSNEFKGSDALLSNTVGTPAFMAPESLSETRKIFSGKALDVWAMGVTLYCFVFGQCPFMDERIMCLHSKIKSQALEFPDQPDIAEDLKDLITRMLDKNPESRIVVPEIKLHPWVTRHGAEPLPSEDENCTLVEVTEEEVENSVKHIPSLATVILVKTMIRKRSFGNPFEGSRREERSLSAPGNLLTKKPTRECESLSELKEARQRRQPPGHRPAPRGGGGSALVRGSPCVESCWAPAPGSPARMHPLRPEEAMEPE
UniProt Q5BKX5: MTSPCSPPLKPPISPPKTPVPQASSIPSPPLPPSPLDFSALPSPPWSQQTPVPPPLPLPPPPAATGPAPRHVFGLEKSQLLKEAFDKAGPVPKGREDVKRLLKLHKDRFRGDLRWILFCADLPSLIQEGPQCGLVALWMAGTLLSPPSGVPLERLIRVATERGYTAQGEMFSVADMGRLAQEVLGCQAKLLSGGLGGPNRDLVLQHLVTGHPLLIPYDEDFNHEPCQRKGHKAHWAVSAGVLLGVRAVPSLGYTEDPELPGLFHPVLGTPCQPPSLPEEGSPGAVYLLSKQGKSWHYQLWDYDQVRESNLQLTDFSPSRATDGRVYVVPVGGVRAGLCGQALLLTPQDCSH
UniProt Q9H9S4: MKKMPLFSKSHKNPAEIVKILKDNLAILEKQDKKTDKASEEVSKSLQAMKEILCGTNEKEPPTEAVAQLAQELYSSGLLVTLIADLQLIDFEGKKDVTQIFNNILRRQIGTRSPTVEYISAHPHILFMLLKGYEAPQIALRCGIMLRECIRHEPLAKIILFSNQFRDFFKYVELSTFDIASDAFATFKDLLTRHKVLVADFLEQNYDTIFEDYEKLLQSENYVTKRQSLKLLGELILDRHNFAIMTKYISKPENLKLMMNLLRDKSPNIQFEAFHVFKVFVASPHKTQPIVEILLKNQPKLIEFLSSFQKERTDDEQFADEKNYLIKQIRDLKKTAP
UniProt Q13901: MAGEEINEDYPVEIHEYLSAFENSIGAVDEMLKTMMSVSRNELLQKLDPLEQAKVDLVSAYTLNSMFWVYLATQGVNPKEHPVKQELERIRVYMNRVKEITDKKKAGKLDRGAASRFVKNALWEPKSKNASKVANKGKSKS
UniProt Q9Y2V0: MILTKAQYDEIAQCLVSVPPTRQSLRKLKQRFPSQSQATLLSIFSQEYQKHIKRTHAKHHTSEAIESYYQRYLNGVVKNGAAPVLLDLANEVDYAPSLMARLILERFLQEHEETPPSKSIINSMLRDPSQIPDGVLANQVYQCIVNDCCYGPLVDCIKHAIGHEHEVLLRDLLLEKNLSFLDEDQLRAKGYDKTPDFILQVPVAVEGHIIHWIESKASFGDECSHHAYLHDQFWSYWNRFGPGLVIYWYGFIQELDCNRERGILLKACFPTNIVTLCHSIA
UniProt Q5SNV9: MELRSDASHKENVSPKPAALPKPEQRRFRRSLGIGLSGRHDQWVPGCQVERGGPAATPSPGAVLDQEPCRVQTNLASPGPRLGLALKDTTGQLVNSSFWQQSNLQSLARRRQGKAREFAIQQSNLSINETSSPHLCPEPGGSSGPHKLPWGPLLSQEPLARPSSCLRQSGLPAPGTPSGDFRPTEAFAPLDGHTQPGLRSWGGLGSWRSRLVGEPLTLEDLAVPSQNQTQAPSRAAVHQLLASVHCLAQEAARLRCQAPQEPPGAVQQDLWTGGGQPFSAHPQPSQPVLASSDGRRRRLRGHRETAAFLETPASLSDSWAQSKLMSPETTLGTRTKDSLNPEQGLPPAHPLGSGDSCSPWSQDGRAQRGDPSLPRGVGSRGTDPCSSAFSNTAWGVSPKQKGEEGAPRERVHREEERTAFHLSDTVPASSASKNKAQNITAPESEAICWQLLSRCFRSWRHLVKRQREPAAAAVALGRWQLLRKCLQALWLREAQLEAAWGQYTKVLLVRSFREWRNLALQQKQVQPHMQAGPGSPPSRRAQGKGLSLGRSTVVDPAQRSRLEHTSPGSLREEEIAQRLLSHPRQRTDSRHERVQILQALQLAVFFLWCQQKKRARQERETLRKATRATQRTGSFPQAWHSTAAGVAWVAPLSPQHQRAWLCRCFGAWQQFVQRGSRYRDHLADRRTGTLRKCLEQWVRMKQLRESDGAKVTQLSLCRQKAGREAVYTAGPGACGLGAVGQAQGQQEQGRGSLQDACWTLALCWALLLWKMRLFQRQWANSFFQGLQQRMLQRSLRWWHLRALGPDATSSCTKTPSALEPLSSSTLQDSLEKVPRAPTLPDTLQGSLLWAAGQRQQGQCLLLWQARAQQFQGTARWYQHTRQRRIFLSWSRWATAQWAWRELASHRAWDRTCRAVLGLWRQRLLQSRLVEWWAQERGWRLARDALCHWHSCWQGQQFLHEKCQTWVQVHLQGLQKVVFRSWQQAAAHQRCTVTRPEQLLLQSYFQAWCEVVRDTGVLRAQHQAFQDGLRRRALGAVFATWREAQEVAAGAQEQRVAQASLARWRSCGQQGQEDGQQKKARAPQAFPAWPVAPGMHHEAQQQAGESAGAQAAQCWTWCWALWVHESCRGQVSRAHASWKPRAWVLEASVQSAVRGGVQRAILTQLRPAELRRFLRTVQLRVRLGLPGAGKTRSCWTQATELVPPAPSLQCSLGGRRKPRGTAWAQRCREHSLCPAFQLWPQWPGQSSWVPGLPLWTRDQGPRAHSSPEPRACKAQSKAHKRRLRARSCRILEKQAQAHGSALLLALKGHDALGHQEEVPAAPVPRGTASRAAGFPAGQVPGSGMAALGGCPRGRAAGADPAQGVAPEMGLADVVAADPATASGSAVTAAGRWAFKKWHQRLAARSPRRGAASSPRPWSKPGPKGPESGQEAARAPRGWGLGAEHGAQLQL
UniProt Q7Z6I8: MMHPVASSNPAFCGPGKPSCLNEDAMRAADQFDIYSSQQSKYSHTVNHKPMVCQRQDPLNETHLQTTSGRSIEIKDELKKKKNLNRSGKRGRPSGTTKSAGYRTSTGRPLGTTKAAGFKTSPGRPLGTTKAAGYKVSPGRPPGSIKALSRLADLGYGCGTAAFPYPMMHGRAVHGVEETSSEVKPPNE
UniProt Q96MD7: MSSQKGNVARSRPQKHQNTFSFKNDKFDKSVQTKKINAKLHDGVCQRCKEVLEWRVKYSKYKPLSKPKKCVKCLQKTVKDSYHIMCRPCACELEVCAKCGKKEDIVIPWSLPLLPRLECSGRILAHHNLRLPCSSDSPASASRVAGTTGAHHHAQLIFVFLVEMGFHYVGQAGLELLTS
UniProt Q9Y297: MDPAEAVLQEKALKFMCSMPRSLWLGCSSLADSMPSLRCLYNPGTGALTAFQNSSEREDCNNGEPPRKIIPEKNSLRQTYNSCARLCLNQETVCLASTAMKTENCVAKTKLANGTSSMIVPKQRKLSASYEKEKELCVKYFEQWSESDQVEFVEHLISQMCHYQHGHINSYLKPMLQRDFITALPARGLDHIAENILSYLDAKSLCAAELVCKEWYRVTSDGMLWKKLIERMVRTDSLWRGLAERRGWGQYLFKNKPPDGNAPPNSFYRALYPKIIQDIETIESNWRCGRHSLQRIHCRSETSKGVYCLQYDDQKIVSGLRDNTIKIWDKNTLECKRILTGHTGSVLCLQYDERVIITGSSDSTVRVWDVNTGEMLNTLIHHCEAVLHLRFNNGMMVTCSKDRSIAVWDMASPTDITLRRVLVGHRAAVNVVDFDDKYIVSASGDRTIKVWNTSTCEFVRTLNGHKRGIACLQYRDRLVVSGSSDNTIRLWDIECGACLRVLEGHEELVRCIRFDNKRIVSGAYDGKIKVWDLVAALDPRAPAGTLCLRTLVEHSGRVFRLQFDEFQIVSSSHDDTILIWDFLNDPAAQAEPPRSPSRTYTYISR
UniProt Q9BRD0: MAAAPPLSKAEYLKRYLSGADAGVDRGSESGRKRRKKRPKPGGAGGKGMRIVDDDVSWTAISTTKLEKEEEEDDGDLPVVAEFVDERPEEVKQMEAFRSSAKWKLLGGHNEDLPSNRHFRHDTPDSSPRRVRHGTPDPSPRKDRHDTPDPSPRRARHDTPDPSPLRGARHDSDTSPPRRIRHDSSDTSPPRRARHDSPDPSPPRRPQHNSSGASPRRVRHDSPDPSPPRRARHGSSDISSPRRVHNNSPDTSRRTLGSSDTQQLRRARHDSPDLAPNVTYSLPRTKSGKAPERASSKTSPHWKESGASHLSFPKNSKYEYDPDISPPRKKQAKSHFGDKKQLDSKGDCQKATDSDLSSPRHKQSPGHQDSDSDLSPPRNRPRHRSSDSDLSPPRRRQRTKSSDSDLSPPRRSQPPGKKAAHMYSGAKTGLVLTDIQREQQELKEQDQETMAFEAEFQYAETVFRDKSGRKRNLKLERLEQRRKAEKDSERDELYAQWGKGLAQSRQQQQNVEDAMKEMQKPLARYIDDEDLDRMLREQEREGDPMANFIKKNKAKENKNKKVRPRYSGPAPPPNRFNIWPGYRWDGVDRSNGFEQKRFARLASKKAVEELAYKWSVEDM

Compound in the first assay: CC[C@@H]1C(=O)N(C)c2cnc(Nc3ccc(C(=O)NC4CCN(C)CC4)cc3OC)nc2N1C1CCCC1
In words: log2 fold change, soluble protein after heating vs DMSO (PISA); higher = thermal stabilisation; K562 cells, 10 uM, 30 min; active = over 0.2 and 3.5 SD of the protein, either way, in both replicates (recomputed). The method, boiled down: (§1)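 K562 cells at 2×10^6 cells/mL were given 10 μM compound for 30 min. Aliquots then went through 3 min of heating across 48°C-58°C, were pooled, and were extracted in PBS with 0.5% NP-40 at 4°C, and the supernatant after 21,000xg for 90 min was quantified by TMTpro 16plex LC-MS/MS with channel sums equalised. Thermal stability relative to control samples, from duplicates, is given as log2 fold change.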
In the case of C6orf120 (UniProt Q7Z4R8), the log2 fold change was inactive: 0.066.

In the case of CA1 (UniProt P00915), the log2 fold change was inactive: 0.

C1orf112 (UniProt Q9NSG2): the log2 fold change was inactive: -0.103.

Turning to C16orf70 (UniProt Q9BSU1), the log2 fold change was inactive: 0.167.

As to C16orf87 (UniProt Q6PH81), the log2 fold change was inactive: -0.018.

As for CALML3 (UniProt P27482), the log2 fold change was inactive: 0.165.

Regarding CA2 (UniProt P00918), the log2 fold change is inactive: 0.427.

For CARD19 isoform 2 (UniProt Q96LW7), the log2 fold change was inactive: -0.007.

With C4BPA (UniProt P04003), the log2 fold change was inactive: 0.64.

As for CAMK1 (UniProt Q14012), the log2 fold change is inactive: -0.057.

With CAMKK2 (UniProt Q96RR4), the log2 fold change was inactive: 0.374.

As for C11orf74 (UniProt Q86VG3), the log2 fold change was inactive: -0.013.

For C19orf12 (UniProt Q9NSK7), the log2 fold change was inactive: -0.137.

As to C3orf38 (UniProt Q5JPI3), the log2 fold change is inactive: 0.033.

Regarding C19orf54 (UniProt Q5BKX5), the log2 fold change was inactive: 0.054.

With CAPN1 (UniProt E9PLX0), the log2 fold change is inactive: -0.068.

For C2orf76 (UniProt Q3KRA6), the log2 fold change was inactive: -0.307.

Take CAB39L (UniProt Q9H9S4): the log2 fold change was inactive: -0.134.

C1D (UniProt Q13901): the log2 fold change was inactive: 0.088.

For the target C6orf136 isoform 4 (UniProt Q5SQH8), the log2 fold change was inactive: 0.014.

As to C12orf65 (UniProt Q9H3J6), the log2 fold change is inactive: 0.196.

For the target C15orf41 (UniProt Q9Y2V0), the log2 fold change was inactive: -0.04.

Compound in another assay: CC[C@@H]1C(=O)N(C)c2cnc(Nc3ccc(C(=O)N[C@H]4CC[C@H](N5CCN(CC6CC6)CC5)CC4)cc3OC)nc2N1C(C)C [volasertib]
Described as above. Summed up: as §1
As to C9orf72 (UniProt Q96LT7), the log2 fold change is inactive: -0.089.

As for C6orf120 (UniProt Q7Z4R8), the log2 fold change is inactive: -0.101.

As for C1orf167 isoform 2 (UniProt Q5SNV9), the log2 fold change was inactive: 0.01.

CA1 (UniProt P00915): the log2 fold change is inactive: -0.02.

C1orf112 (UniProt Q9NSG2): the log2 fold change is inactive: -0.211.

Take C16orf70 (UniProt Q9BSU1): the log2 fold change was inactive: -0.102.

As to C5orf24 (UniProt Q7Z6I8), the log2 fold change is inactive: 0.302.

As to CALML3 (UniProt P27482), the log2 fold change is inactive: 0.045.

Consider CA2 (UniProt P00918), for which the log2 fold change is inactive: 0.13.

Consider C9orf85 isoform 1 (UniProt Q96MD7), for which the log2 fold change was inactive: -0.02.

CAMKK2 (UniProt Q96RR4): the log2 fold change is active: 0.617.

Turning to C19orf12 (UniProt Q9NSK7), the log2 fold change was inactive: -0.062.

For the target BTRC (UniProt Q9Y297), the log2 fold change was inactive: -0.076.

On to CAPN15 (UniProt O75808), for which the log2 fold change is inactive: -0.005.

Consider C3orf38 (UniProt Q5JPI3), for which the log2 fold change is inactive: -0.191.

Take C19orf54 (UniProt Q5BKX5): the log2 fold change was inactive: -0.06.

Regarding CAB39L (UniProt Q9H9S4), the log2 fold change was inactive: -0.054.

With BUD13 (UniProt Q9BRD0), the log2 fold change is inactive: 0.187.

On to C5orf30 (UniProt Q96GV9), for which the log2 fold change was inactive: 0.001.

C1D (UniProt Q13901): the log2 fold change is inactive: 0.076.

Consider C22orf39 (UniProt Q6P5X5), for which the log2 fold change was inactive: 0.134.

As for C8orf88 (UniProt P0DMB2), the log2 fold change is inactive: 0.069.

In the case of C15orf41 (UniProt Q9Y2V0), the log2 fold change is inactive: -0.188.

Compound in another assay: CC[C@H](C)N1C=C(C2=C(C=C(C=C21)C3=CN=C(C=C3)N4CCNCC4)C(=O)NCC5=C(C=C(NC5=O)C)C)C
The assay is described as above. The method, boiled down:
as §1
With C9orf72 (UniProt Q96LT7), the log2 fold change was inactive: 0.062.

C6orf120 (UniProt Q7Z4R8): the log2 fold change was inactive: 0.019.

For the target C1orf167 isoform 2 (UniProt Q5SNV9), the log2 fold change is inactive: 0.015.

Take CA1 (UniProt P00915): the log2 fold change is inactive: 0.01.

As for C5orf24 (UniProt Q7Z6I8), the log2 fold change was inactive: -0.183.

In the case of C16orf87 (UniProt Q6PH81), the log2 fold change was inactive: 0.072.

Consider CA2 (UniProt P00918), for which the log2 fold change is inactive: 0.064.

Consider C9orf85 isoform 1 (UniProt Q96MD7), for which the log2 fold change is inactive: 0.

With C4BPA (UniProt P04003), the log2 fold change is inactive: 0.162.

For CAMKK2 (UniProt Q96RR4), the log2 fold change is inactive: 0.014.

On to C11orf74 (UniProt Q86VG3), for which the log2 fold change was inactive: 0.212.

For the target C19orf12 (UniProt Q9NSK7), the log2 fold change is inactive: 0.048.

Take BTRC (UniProt Q9Y297): the log2 fold change was inactive: -0.016.

Regarding C3orf38 (UniProt Q5JPI3), the log2 fold change was inactive: 0.

For BUD13 (UniProt Q9BRD0), the log2 fold change was inactive: -0.044.

With C1D (UniProt Q13901), the log2 fold change is inactive: -0.034.

Regarding C22orf39 (UniProt Q6P5X5), the log2 fold change was inactive: -0.042.

Consider C6orf136 isoform 4 (UniProt Q5SQH8), for which the log2 fold change was inactive: -0.254.

C12orf65 (UniProt Q9H3J6): the log2 fold change was inactive: -0.119.

Compound in another assay: CC[C@H](C)[C@@H](C(=O)N[C@@H]([C@@H](C)O)C(=O)N[C@@H](CC(C)C)C(=O)[C@]1(CO1)C)NC(=O)[C@H]([C@@H](C)CC)N(C)C(=O)C [epoxomicin]
Described as above. Summed up:
as §1
Turning to C9orf72 (UniProt Q96LT7), the log2 fold change was inactive: -0.008.

For the target C1orf167 isoform 2 (UniProt Q5SNV9), the log2 fold change was inactive: -0.085.

CA1 (UniProt P00915): the log2 fold change was inactive: 0.016.

Take C16orf70 (UniProt Q9BSU1): the log2 fold change was inactive: 0.219.

Turning to C5orf24 (UniProt Q7Z6I8), the log2 fold change is inactive: 0.123.

C16orf87 (UniProt Q6PH81): the log2 fold change is inactive: 0.102.

Take CALML3 (UniProt P27482): the log2 fold change is inactive: -0.03.

C9orf85 isoform 1 (UniProt Q96MD7): the log2 fold change is inactive: 0.057.

For the target CARD19 isoform 2 (UniProt Q96LW7), the log2 fold change is inactive: 0.081.

For the target C4BPA (UniProt P04003), the log2 fold change was inactive: -0.268.

Take CAMKK2 (UniProt Q96RR4): the log2 fold change is inactive: 0.211.

Consider C11orf74 (UniProt Q86VG3), for which the log2 fold change is inactive: 0.21.

On to C19orf12 (UniProt Q9NSK7), for which the log2 fold change was inactive: 0.013.

BTRC (UniProt Q9Y297): the log2 fold change was inactive: 0.148.

Take CAPN15 (UniProt O75808): the log2 fold change was inactive: -0.103.

Turning to C3orf38 (UniProt Q5JPI3), the log2 fold change was inactive: -0.125.

With C19orf54 (UniProt Q5BKX5), the log2 fold change was inactive: 0.094.

As for CAB39L (UniProt Q9H9S4), the log2 fold change is inactive: 0.018.

With BUD13 (UniProt Q9BRD0), the log2 fold change is inactive: -0.251.

For C5orf30 (UniProt Q96GV9), the log2 fold change was inactive: 0.165.

Turning to C1D (UniProt Q13901), the log2 fold change was inactive: 0.02.

As for C22orf39 (UniProt Q6P5X5), the log2 fold change is inactive: 0.081.

For the target C8orf88 (UniProt P0DMB2), the log2 fold change was inactive: 0.115.

As to C15orf41 (UniProt Q9Y2V0), the log2 fold change was inactive: -0.165.
